Publication PMC7819943, “Rice protein-binding microarrays: a tool to detect cis-acting elements near promoter regions in rice”
The other results are listed elsewhere or left out.

Target: T1, OsSMF1 (Oryza sativa, UniProt Q6ZLB0 1-436)
T1 sequence: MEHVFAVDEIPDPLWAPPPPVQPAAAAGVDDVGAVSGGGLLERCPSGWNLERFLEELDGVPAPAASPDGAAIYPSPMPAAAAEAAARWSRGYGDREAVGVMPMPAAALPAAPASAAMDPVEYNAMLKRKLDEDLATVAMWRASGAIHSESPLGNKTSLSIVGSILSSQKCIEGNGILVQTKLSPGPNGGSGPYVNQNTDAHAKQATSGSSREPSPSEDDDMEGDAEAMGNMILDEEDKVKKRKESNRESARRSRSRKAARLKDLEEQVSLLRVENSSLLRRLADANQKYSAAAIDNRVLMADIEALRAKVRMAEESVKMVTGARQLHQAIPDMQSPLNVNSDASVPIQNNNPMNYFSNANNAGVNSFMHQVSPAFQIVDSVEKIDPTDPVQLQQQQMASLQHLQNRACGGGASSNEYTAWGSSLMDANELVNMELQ
Assay: protein-binding microarray (RPBM); PBS, 2% BSA, 51.3 ng/ul salmon testes DNA, 50 uM zinc acetate, 200 nM TF, 25 C, 1 h; high values mean tight binding
Conditions: protein: recombinant; tags: N-terminal polyhistidine and DsRed monomer fusion (pET32a); chain copies: 2; label: CyDye5-dUTP incorporated in the synthesized complementary strand; 3' TTTTT single-stranded linker to array surface; dsDNA, one strand shown
Method in brief: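 Transcription factors were each fused at the N-terminus to a polyhistidine tag plus DsRed and expressed in E. coli BL21-CodonPlus before Ni–NTA purification. Binding to a double-stranded custom Agilent array was carried out with 200 nM protein at 25 °C for 1 h in PBS, 2% BSA, salmon testes DNA and 50 µM zinc acetate. The binding signal is per-feature fluorescence intensity, in arbitrary units, on an Axon 4000B scanner.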

Sequence | binding signal
AGCAGCGTGATATGACGATCTATTTGTCCACTCCATATTGCGGAGTCACCTAGTGCAG | 3260 fluorescence intensity (a.u.)
CATTGGAATTGATGATCACATTATACATGGATTTGACCCACGGAGTCACCTAGTGCAG | 3300 fluorescence intensity (a.u.)
GCCTCCCCATCGCGCTGCCACCTCCGCCTCCCGCCGTCCCCGGAGTCACCTAGTGCAG | 3920 fluorescence intensity (a.u.)
ACGGGCTCGTCGAGCTGCTCTGGTGCAATGGCCACGTCATCGGAGTCACCTAGTGCAG | 28400 fluorescence intensity (a.u.)
CCAAAACACACATCATTTTCTAGGACTTGAAATTAAGTTCCGGAGTCACCTAGTGCAG | 13600 fluorescence intensity (a.u.)
CGGGATGCGGAGGACACGTCGACTCTGCGCACCCGCTTTTCGGAGTCACCTAGTGCAG | 7970 fluorescence intensity (a.u.)
CTGGCATTGACACGGTACGCGTCATCGACGGTAGACCGCGCGGAGTCACCTAGTGCAG | 7840 fluorescence intensity (a.u.)
GGTGGTGTTGTTGGTGGTGCAGTTCTTGGAGTCACATGGTCGGAGTCACCTAGTGCAG | 3850 fluorescence intensity (a.u.)
GTTTCCCAAATCATCAAAGAAGGTGATTTGCATCGATCTTCGGAGTCACCTAGTGCAG | 3170 fluorescence intensity (a.u.)
TTTATTAATATATATATATATATATATATATATATATATACGGAGTCACCTAGTGCAG | 7400 fluorescence intensity (a.u.)
TCGACCCGCCCTCCCCGTCGACGAGCTCCAGCGCGGCGCCCGGAGTCACCTAGTGCAG | 4320 ± 159 fluorescence intensity (a.u.)
TCACTGTCACACATGATGACCCCGCTCACATCATCACTTACGGAGTCACCTAGTGCAG | 4160 fluorescence intensity (a.u.)
ACCTACTAATAACTAGTTAATTGTCTATTGTGCCCCTAGTCGGAGTCACCTAGTGCAG | 13700 fluorescence intensity (a.u.)
TGTCCATGGTTTGTTGCTGCTGCGGTGGCACCAGTGCTGCCGGAGTCACCTAGTGCAG | 7940 fluorescence intensity (a.u.)
CTATACTATTAATATATGGTCCCACCTGTCATATACACAGCGGAGTCACCTAGTGCAG | 3360 fluorescence intensity (a.u.)
GAGCATGAGCGAACATCGATGAAGGATGAAAATTGTAGGGCGGAGTCACCTAGTGCAG | 4260 fluorescence intensity (a.u.)
CCGTCCCCGTCGAGTCGCCGTGTCCGACGCCTTCGCCTCCCGGAGTCACCTAGTGCAG | 3740 fluorescence intensity (a.u.)
TCTTCTTGCTATGTGTGCTCTCTACATTTGCTGCCGTGGACGGAGTCACCTAGTGCAG | 30700 fluorescence intensity (a.u.)
GAGATTCTCGTCTGTTTAGTTGATCTGATCTGACAATTTGCGGAGTCACCTAGTGCAG | 3500 fluorescence intensity (a.u.)
TTGAAAGTATGATTCCAAGAAACAATTCTTATGTTACATTCGGAGTCACCTAGTGCAG | 28400 fluorescence intensity (a.u.)
TGCTTCGTCTTCCACTGCAGCTGACTCACATGGCCAAACACGGAGTCACCTAGTGCAG | 8760 fluorescence intensity (a.u.)

Rewritten tab-delimited: entries from further up.
Sequence	binding signal
CGGGATGCGGAGGACACGTCGACTCTGCGCACCCGCTTTTCGGAGTCACCTAGTGCAG	7970 fluorescence intensity (a.u.)
CCGTCCCCGTCGAGTCGCCGTGTCCGACGCCTTCGCCTCCCGGAGTCACCTAGTGCAG	3740 fluorescence intensity (a.u.)

Following part:

Sequence | binding signal
TCAGGTATATAAGCTTTGCAAACAACCAAATAACAGGTACCGGAGTCACCTAGTGCAG | 3940 fluorescence intensity (a.u.)
GTTACCGTCCTGTTGGCTGGTTATAACCGTTGTTGTCGTTCGGAGTCACCTAGTGCAG | 3200 fluorescence intensity (a.u.)
AGCTTGGTAAGTAAAGTGGTGCCGTGTCGGGTGTGAGGTTCGGAGTCACCTAGTGCAG | 33900 fluorescence intensity (a.u.)
CCCAGGACCAACGCCAACCATATGCACAGACTAGTAAACGCGGAGTCACCTAGTGCAG | 3350 fluorescence intensity (a.u.)
CGTCTGCCACGTCACTTTCGCCGCCCTCTGGGATGGCGATCGGAGTCACCTAGTGCAG | 14800 fluorescence intensity (a.u.)
GATCTCCTTTACACGTGATGTTGACGTGGCGTTTAGGTGGCGGAGTCACCTAGTGCAG | 26500 fluorescence intensity (a.u.)
TTCCTGCTGCCACGTCAAGACACCATCTGGAAGACTGGAACGGAGTCACCTAGTGCAG | 8830 fluorescence intensity (a.u.)
CCACAAGCTGACCTTAAATTACGTGTGGTTGCCGGTTAATCGGAGTCACCTAGTGCAG | 3260 fluorescence intensity (a.u.)
ATTAGGCACACGTAGGTATGGGATGGGCCAAGCCCATGTGCGGAGTCACCTAGTGCAG | 3400 fluorescence intensity (a.u.)
AAGTTCCGCCATTGCACACGTGGCGTGATATGAACAGGGACGGAGTCACCTAGTGCAG | 12200 fluorescence intensity (a.u.)
CAAGCGTACAGGTACAGAACACGTAACGTGTCCGGCACTACGGAGTCACCTAGTGCAG | 3140 fluorescence intensity (a.u.)
AGCGAAGTAAGGGTCACATGCATGCATCATGCCGTCCGTCCGGAGTCACCTAGTGCAG | 3820 fluorescence intensity (a.u.)
TTAGTTAGGATCAATAAATTTATCTCACGAATTATTTAGACGGAGTCACCTAGTGCAG | 25900 fluorescence intensity (a.u.)
TGTTTAGATCTAGTGGTGTAAAGTTTTAGTGTGTCACATCCGGAGTCACCTAGTGCAG | 4590 fluorescence intensity (a.u.)
ACATCTTAAACTGCAATGCAACTGCTTAGCATAGTATAAGCGGAGTCACCTAGTGCAG | 3160 fluorescence intensity (a.u.)
ACTGAGCTAACAGAGACGATGGGTCATACTGGTGAATCAGCGGAGTCACCTAGTGCAG | 5790 fluorescence intensity (a.u.)
AAGACCTGGGGTTACCCATTGCTGATGGCCTTAGCGAGCCCGGAGTCACCTAGTGCAG | 6450 fluorescence intensity (a.u.)
TTGGGGAAGGTGGTGGCGCACATTGGATGGGGCAGGAGGGCGGAGTCACCTAGTGCAG | 3150 fluorescence intensity (a.u.)
AAGAGATCCTTGTGTTTCGGAAGAATTTTGGTTGGTGTATCGGAGTCACCTAGTGCAG | 23500 fluorescence intensity (a.u.)
GCGGGCACGTCACCGGTGGAAAATATGTTTACTCGCCACGCGGAGTCACCTAGTGCAG | 6340 fluorescence intensity (a.u.)
TGGCTGTGGCATCCGTGATGACGATGATGACCTTGACGGCCGGAGTCACCTAGTGCAG | 4020 fluorescence intensity (a.u.)
